Assay results: patent publication US6130220A, “Sulfamide-metalloprotease inhibitors” (Syntex (USA) Inc., priority 1999, dated 2000)
At least one compound was matched to its structure with a doubt left.

Target: Collagenase-III
Experiment: MMP enzymatic assay, hydrolysis of MCA-Pro-Leu-Gly-Leu-DPA-Ala-Arg-NH2, Collagenase-III
Type: biochemical
Settings: 37° C., pH 7.5, 2.5% DMSO
Method: The propeptide and catalytic domain portion of human collagenase-3 was expressed in E. Coli as an N-terminal fusion protein with ubiquitin. After purification, the catalytic domain was released by treatment with 1 mM APMA for 1 hour at 37° C., and then purified by zinc chelate chromatography.
Rat collagenase-3 was purified in active form from the culture media of uterine smooth muscle cells as described in Roswit, W. T. et al., Arch. Biochem. Biophys., 225, 285-295 (1983).
The matrix metalloprotease inhibitory activity of compounds of this invention in vitro was determined based on the hydrolysis of MCA-Pro-Leu-Gly-Leu-DPA-Ala-Arg-NH2 (Bachem, Inc.) at 37° C. as described in Knight, C. G., et al., FEBS Lett., 296, 263-266 (1992).
The matrix metalloprotease enzyme was diluted with assay buffer (50 mM Tricine pH 7.5, 200 mM NaCl, 10 mM CaCl2, and 0.005% Brij-35) containing 10 μmole of above substrate dissolved in DMSO. Compounds of the invention dissolved in DMSO or only DMSO (control samples) were added such that the final DMSO concentration in all assays was 2.5%. The fluorescence changes were monitored with a Perkin-Elmer LS-50B flourimeter using an excitation wavelength of 328 nm and an emission wavelength of 393 nm.

**Q.** `CC(C)[C@@H](NS(=O)(=O)N1CCN(c2ccc(OCc3ccncc3)cc2)CC1)C(=O)O` [compound 413, 2-(R)-{[4-(pyridin-4-ylmethyloxyphenyl)piperazine-1-sulfonyl]amino}-3-methylbutyric acid] was tested. Which IC50 did it give?
**A.** The IC50 was 260 nM.
